Data on one substance can be found in patent US4123425 (dated 1978).

Some peptides are written in HELM: one residue between dots, names in brackets for other building blocks, links after the first $.

This series is described as follows: general procedure: Boc solid-phase peptide synthesis; DCC (DCC/1-hydroxybenzotriazole for the dipeptide coupling). The note with it: whole synthesis, triacetate.

For “PEPTIDE1{A.G.C.K.[2-MeAla].F.F.W.K.T.F.T.S.C}$PEPTIDE1,PEPTIDE1,3:R3-14:R3$$$V2.0”, the difficulty met result is “Due to incomplete coupling the coupling of t-Boc-2-methylalanine was repeated twice”.
